The results in this text go back to paper PMC10897327.

No constants are given. Whether binding was seen depends on the method and setting. In cells and extracts the contact can be indirect. Binding can be weak; no strength is given.

The target of this assay is C-terminally FLAG-tagged WT 52K (adenovirus L1-52/55 kilodalton protein) (human adenovirus type C5 (Ad5)). The assay can be described thus: co-IP; anti-FLAG (mouse M2) IP of C-terminally FLAG-tagged 52K from lysates of Δ52K Ad5-infected HEK-293 cells at 24 hpi, Protein G Dynabeads, IgG control; immunoblot of eluates (10%) against input (1%). On the technique in general: A western blot detects proteins with antibodies after separation by electrophoresis.

B1: packaging protein IVa2 (protein, UniProt P03271 1-449)
chain: METRGRRPAALQHQQDQPQAHPGQRAARSAPLHRDPDYADEDPAPVERHDPGPSGRAPTTAVQRKPPQPAKRGDMLDRDAVEQVTELWDRLELLGQTLKSMPTADGLKPLKNFASLQELLSLGGERLLADLVRENMRVRDMLNEVAPLLRDDGSCSSLNYQLHPVIGVIYGPTGCGKSQLLRNLLSSQLISPTPETVFFIAPQVDMIPPSELKAWEMQICEGNYAPGPDGTIIPQSGTLRPRFVKMAYDDLILEHNYDVSDPRNIFAQAAARGPIAIIMDECMENLGGHKGVSKFFHAFPSKLHDKFPKCTGYTVLVVLHNMNPRRDMAGNIANLKIQSKMHLISPRMHPSQLNRFVNTYTKGLPLAISLLLKDIFRHHAQRSCYDWIIYNTTPQHEALQWCYLHPRDGLMPMYLNIQSHLYHVLEKIHRTLNDRDRWSRAYRARKTPK
Regarding B1, the binding entry is “binds”.
